# Results: US12370168B2 (scPharmaceuticals Inc., priority 2013, dated 2025)
# Like-named read-outs stand apart in the source and are kept apart here.
# How the values were obtained:
# [1] = 8 mg/mL, isosmotic, pH 7-8, short term exposure to light
# [2] = unbuffered, neutral and weakly alkaline solutions
compound,measurement,setting,value
"NS(=O)(=O)c1cc(C(=O)O)c(NCc2ccco2)cc1Cl [Furosemide, 4-chloro-2-(furan-2-ylmethylamino)-5-sulfamoyl-benzoic acid]",visual inspection after light exposure,[1]; 25 mM Tris,dark brown colored solution
same,visual inspection after light exposure,[1]; 50 mM Tris,progressively lighter shades of brown
same,visual inspection after light exposure,[1]; 100 mM Tris,progressively lighter shades of brown
same,rate of dissolution,[2],quite slow
